# Measured values taken from the supplement of paper PMC8728848.
# This is one part of the list.
# How the values were obtained:
# Assay in all cases: glycan array binding signal (z-score within array); higher = stronger binding
# Conditions in all cases: glycan notation: IUPAC condensed, linker removed
# [1] = target: Gal(a1-3)Gal(b1-4)GlcNAc(b1-2)Man
# Summary of the method: (§1)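 The binding signal is a Z-score computed within each array and averaged over linkers. Arrays of the same protein sequence at different concentrations or buffers were also averaged together. Data originate from 3228 arrays in the Consortium for Functional Glycomics database, kept only where the protein sequence was available.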
# [2] = target: Gal(a1-3)Gal(b1-4)GlcNAc(b1-2)Man(a1-3)[Gal(a1-3)Gal(b1-4)GlcNAc(b1-2)Man(a1-6)]Man(b1-4)GlcNAc(b1-4)GlcNAc
# Summary of the method: as §1
# [3] = target: Gal(a1-3)Gal(b1-4)GlcNAc(b1-3)GalNAc
# Summary of the method: as §1
# [4] = target: Gal(a1-3)Gal(b1-4)GlcNAc(b1-6)GalNAc
# Summary of the method: as §1
# [5] = target: Gal(a1-3)Gal(b1-4)[Fuc(a1-3)]GlcNAc
# Summary of the method: as §1
# [6] = target: Gal(a1-3)Gal(b1-4)[Fuc(a1-3)]GlcNAc(b1-2)Man(a1-3)[Gal(a1-3)Gal(b1-4)[Fuc(a1-3)]GlcNAc(b1-2)Man(a1-6)]Man(b1-4)GlcNAc(b1-4)GlcNAc
# Summary of the method: as §1
# Gal(a1-3)GalNAc = target: Gal(a1-3)GalNAc
# Summary of the method: as §1
# [7] = target: Gal(a1-3)[Gal(a1-4)]Gal(b1-4)GlcNAc
# Summary of the method: as §1
# [8] = target: Gal(a1-4)Gal(b1-3)GlcNAc(b1-2)Man(a1-3)[Gal(a1-4)Gal(b1-3)GlcNAc(b1-2)Man(a1-6)]Man(b1-4)GlcNAc(b1-4)GlcNAc
# Summary of the method: as §1
# Gal(a1-4)Gal(b1-4)Glc = target: Gal(a1-4)Gal(b1-4)Glc
# Summary of the method: as §1
# Gal(a1-4)Gal(b1-4)GlcNAc = target: Gal(a1-4)Gal(b1-4)GlcNAc
# Summary of the method: as §1
# [9] = target: Gal(a1-4)Gal(b1-4)GlcNAc(b1-2)Man(a1-3)[Gal(a1-4)Gal(b1-4)GlcNAc(b1-2)Man(a1-6)]Man(b1-4)GlcNAc(b1-4)GlcNAc
# Summary of the method: as §1
# [10] = target: Gal(a1-4)Gal(b1-4)GlcNAc(b1-3)Gal(b1-4)Glc
# Summary of the method: as §1
# Gal(a1-4)GlcNAc = target: Gal(a1-4)GlcNAc
# Summary of the method: as §1
# Gal(a1-6)Glc = target: Gal(a1-6)Glc
# Summary of the method: as §1
# Gal(b1-2)Gal = target: Gal(b1-2)Gal
# Summary of the method: as §1
# Gal(b1-3)Gal = target: Gal(b1-3)Gal
# Summary of the method: as §1
# Gal(b1-3)Gal(b1-4)GlcNAc = target: Gal(b1-3)Gal(b1-4)GlcNAc
# Summary of the method: as §1
# Gal(b1-3)GalNAc = target: Gal(b1-3)GalNAc
# Summary of the method: as §1
# [11] = target: Gal(b1-3)GalNAc(a1-3)[Fuc(a1-2)]Gal(b1-4)Glc
# Summary of the method: as §1
# [12] = target: Gal(b1-3)GalNAc(a1-3)[Fuc(a1-2)]Gal(b1-4)GlcNAc
# Summary of the method: as §1
# Gal(b1-3)GalNAc(b1-3)Gal = target: Gal(b1-3)GalNAc(b1-3)Gal
# Summary of the method: as §1
# [13] = target: Gal(b1-3)GalNAc(b1-3)Gal(a1-4)Gal(b1-4)Glc
# Summary of the method: as §1
# [14] = target: Gal(b1-3)GalNAc(b1-4)Gal(b1-4)Glc
# Summary of the method: as §1
# [15] = target: Gal(b1-3)GalNAc(b1-4)[Neu5Ac(a2-3)]Gal(b1-4)Glc
# Summary of the method: as §1
# Gal(b1-3)GlcNAc = target: Gal(b1-3)GlcNAc
# Summary of the method: as §1
# [16] = target: Gal(b1-3)GlcNAc(a1-3)Gal(b1-4)GlcNAc
# Summary of the method: as §1
# [17] = target: Gal(b1-3)GlcNAc(a1-6)Gal(b1-4)GlcNAc
# Summary of the method: as §1
# Gal(b1-3)GlcNAc(b1-2)Man = target: Gal(b1-3)GlcNAc(b1-2)Man
# Summary of the method: as §1
# [18] = target: Gal(b1-3)GlcNAc(b1-2)Man(a1-3)[Gal(b1-3)GlcNAc(b1-2)Man(a1-6)]Man(b1-4)GlcNAc(b1-4)GlcNAc
# Summary of the method: as §1
binder,measurement,setting,value
TAL6-6LysM (Trichoderma atroviride) (protein) AASKLGVPQPAQRDQVNCQLYAVQPNDNCIDISSKNNITYAQLLSWNPSLSSTCSNLASLNSSSICVSNPKGTFSISSNTVGATDIATTTAPVPSPTLDQTTSRCAKYYQVSDGDDCSHLTAQFAITLKDFIFLNSEVWQNCTNLELGYYYCVEPVGYISTYPGYLPTATTKPFNQTSATSLPYDGDPWARFSSNSSVIPIANGTRVDCYSYVYVKNLTENLFADCWNMASMYEITREELVLWNPSLGNDGSSGSNLSGAEASQVASSIAIPTTAPSSITTNLYTYPCTVAANISYCVALVSSTGALPTNTAPPGPHASGEISNCTAWFAPEAYDTCKSILDIFEMSFANFYKMNPSVGPDCSGLAVGTNYCVSTYPNGEDPNDDWDGDDSIPSISPTGIITPTPTQSGMVSNCNKFYDVHSNDGCSAIASSQHVDLSSLYKWNPAIKTDCSGLQASVYVCIGILTTSMSTTSKLPTTTSKPSTTSKPPTGITTPTPTQSGMVKNCNKFYDVHSGDGCSAIASSQKVNLSSFYLWNPAVKTDCSGLQASVFVCIGTLTTSMSTTTSKLPTTTSKPSTTSKPPTGIITPTPTQNGMVKNCNKFYDVHSGDGCSAIASSQKVNLSSFYLWNPAVKTDCSGLQASVFVCVGTATTTTAAGITTPTPTQSGMVSGCNKFYDVHAGDGCSAIASSQKIALSSLYKWNPAVKTDCSGLQASVYICIGVGNAAAARVTGAAASFLEQKLISEEDLNSAVDHHHHHH,glycan array binding signal (z-score),[1],0.538
same,glycan array binding signal (z-score),[2],0.08
same,glycan array binding signal (z-score),[3],-1.02
same,glycan array binding signal (z-score),[4],-0.542
same,glycan array binding signal (z-score),[5],-0.418
same,glycan array binding signal (z-score),[6],-0.687
same,glycan array binding signal (z-score),Gal(a1-3)GalNAc,0.187
same,glycan array binding signal (z-score),[7],0.465
same,glycan array binding signal (z-score),[8],-0.972
same,glycan array binding signal (z-score),Gal(a1-4)Gal(b1-4)Glc,2.69
same,glycan array binding signal (z-score),Gal(a1-4)Gal(b1-4)GlcNAc,0.405
same,glycan array binding signal (z-score),[9],-0.586
same,glycan array binding signal (z-score),[10],-0.008
same,glycan array binding signal (z-score),Gal(a1-4)GlcNAc,-1.6
same,glycan array binding signal (z-score),Gal(a1-6)Glc,0.525
same,glycan array binding signal (z-score),Gal(b1-2)Gal,-0.67
same,glycan array binding signal (z-score),Gal(b1-3)Gal,-0.192
same,glycan array binding signal (z-score),Gal(b1-3)Gal(b1-4)GlcNAc,0.459
same,glycan array binding signal (z-score),Gal(b1-3)GalNAc,-0.343
same,glycan array binding signal (z-score),[11],-2.15
same,glycan array binding signal (z-score),[12],-0.299
same,glycan array binding signal (z-score),Gal(b1-3)GalNAc(b1-3)Gal,-1.58
same,glycan array binding signal (z-score),[13],-0.337
same,glycan array binding signal (z-score),[14],-0.503
same,glycan array binding signal (z-score),[15],-0.687
same,glycan array binding signal (z-score),Gal(b1-3)GlcNAc,-0.122
same,glycan array binding signal (z-score),[16],0.95
same,glycan array binding signal (z-score),[17],-1.17
same,glycan array binding signal (z-score),Gal(b1-3)GlcNAc(b1-2)Man,3.66
same,glycan array binding signal (z-score),[18],0.699

# Retrieved one by one from above, two records:
binder,measurement,setting,value
TAL6-6LysM (Trichoderma atroviride) (protein) AASKLGVPQPAQRDQVNCQLYAVQPNDNCIDISSKNNITYAQLLSWNPSLSSTCSNLASLNSSSICVSNPKGTFSISSNTVGATDIATTTAPVPSPTLDQTTSRCAKYYQVSDGDDCSHLTAQFAITLKDFIFLNSEVWQNCTNLELGYYYCVEPVGYISTYPGYLPTATTKPFNQTSATSLPYDGDPWARFSSNSSVIPIANGTRVDCYSYVYVKNLTENLFADCWNMASMYEITREELVLWNPSLGNDGSSGSNLSGAEASQVASSIAIPTTAPSSITTNLYTYPCTVAANISYCVALVSSTGALPTNTAPPGPHASGEISNCTAWFAPEAYDTCKSILDIFEMSFANFYKMNPSVGPDCSGLAVGTNYCVSTYPNGEDPNDDWDGDDSIPSISPTGIITPTPTQSGMVSNCNKFYDVHSNDGCSAIASSQHVDLSSLYKWNPAIKTDCSGLQASVYVCIGILTTSMSTTSKLPTTTSKPSTTSKPPTGITTPTPTQSGMVKNCNKFYDVHSGDGCSAIASSQKVNLSSFYLWNPAVKTDCSGLQASVFVCIGTLTTSMSTTTSKLPTTTSKPSTTSKPPTGIITPTPTQNGMVKNCNKFYDVHSGDGCSAIASSQKVNLSSFYLWNPAVKTDCSGLQASVFVCVGTATTTTAAGITTPTPTQSGMVSGCNKFYDVHAGDGCSAIASSQKIALSSLYKWNPAVKTDCSGLQASVYICIGVGNAAAARVTGAAASFLEQKLISEEDLNSAVDHHHHHH,glycan array binding signal (z-score),[13],-0.337
same,glycan array binding signal (z-score),Gal(a1-3)GalNAc,0.187
